# The whole screen tested about 310,000 compounds, of which about 17,000 (5.5%) were called active. Inconclusive results, whose numbers are uncertain, are shown with a selection of clear calls. The call rests on the fitted dose curve; in most records, active means well fitted inhibition curve with a large enough effect; inconclusive means small, poorly fitted or top-dose-only effect, or effect the other way; inactive means no such curve, though single readings can be large or run the other way. A potency beside an inconclusive call is a rough fit, not a confirmed value.
# By UniProt entry, the sequences of proteins in these tests, tags left out. Where a name states a change or a piece, a line headed by the entry shows the natural chain unless it says otherwise.
# UniProt P51450: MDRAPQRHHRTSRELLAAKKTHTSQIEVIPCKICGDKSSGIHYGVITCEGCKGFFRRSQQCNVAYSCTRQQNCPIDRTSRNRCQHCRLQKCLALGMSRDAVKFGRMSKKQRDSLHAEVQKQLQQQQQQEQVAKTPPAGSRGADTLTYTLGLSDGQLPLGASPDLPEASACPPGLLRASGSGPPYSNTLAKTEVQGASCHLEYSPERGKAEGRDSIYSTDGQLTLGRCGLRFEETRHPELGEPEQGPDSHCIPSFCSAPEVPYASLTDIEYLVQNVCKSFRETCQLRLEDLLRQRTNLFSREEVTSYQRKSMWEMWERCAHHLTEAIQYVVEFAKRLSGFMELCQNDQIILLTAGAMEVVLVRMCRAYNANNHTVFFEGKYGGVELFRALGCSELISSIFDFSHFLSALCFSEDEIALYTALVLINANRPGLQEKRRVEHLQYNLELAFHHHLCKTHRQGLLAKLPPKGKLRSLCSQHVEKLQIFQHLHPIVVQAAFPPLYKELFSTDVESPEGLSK
# Target: Nuclear receptor ROR-gamma (Mus musculus) (UniProt P51450)
# Assay: qHTS for inhibitors of ROR gamma transcriptional activity; further: nearly all actives have a fitted effect of over 60% in size
# Conditions: Drosophila S2 Gal4-RORgamma UAS-luciferase reporter, 20 h; activity change, negative = inhibition: at 53.6 µM (top of the series)
# Outline: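 Stable Schneider cell line, Gal4 DNA-binding domain fused to ROR gamma, UAS-luciferase. Cmpd 1 hr RT → CuSO4 700 uM final → 20 hr RT → luciferase reagent 10 min → luminescence.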
# On the % scale 0 is the no-effect control and ±100 the full control effect; potency means the concentration at half of the fitted maximal effect.
SMILES,"activity change, negative = inhibition",Potency
Cc1ccc(/C=C2\SC(=S)N(CCC(=O)N3CCCCC3)C2=O)cc1,inactive: -0.211%,
Cc1cc(OC(C)C(=O)N(Cc2ccco2)C2CCS(=O)(=O)C2)cc(C)c1Cl (centres undefined),inactive: -0.179%,
CC(C)c1ccc(/C=N/n2c(COc3ccccc3)n[nH]c2=S)cc1,,"inconclusive: 1.58 µM [inhibitor, full curve]"
CC(=O)c1cccc(NC(=O)C23CC4CC(C2)CC(n2cncn2)(C4)C3)c1,,"inconclusive: 5.62 µM [activator, full curve]"
CCCCn1c(/C=N/Nc2nc3ccccc3[nH]2)nc2ccccc21,,active: 1.78 µM
O=C(Cc1cccs1)N1CCN=C1SCc1ccccc1Cl,,"inconclusive: 11.2 µM [activator, single point]"
Nc1nonc1C(=O)NCCc1ccccc1,,"inconclusive: 12.6 µM [activator, single point]"
COc1cc(/C=C(\C#N)C(=O)Nc2ccc3c(c2)OCCO3)ccc1O,,"inconclusive: 35.5 µM [inhibitor, single point]"
O=C(Nc1cc(Cl)ccn1)C1CCN(S(=O)(=O)c2cccs2)CC1,,"inconclusive: 12.6 µM [activator, single point]"
COc1cccc(C(=O)N2CCC(C(=O)NCc3ccco3)CC2)c1,inactive: -2.39%,
Cc1cccc(NC(=O)C2CCCN(c3ncnc4c3nc3n4CCCCC3)C2)n1 (centres undefined),,"inconclusive: 15.8 µM [activator, single point]"
O=C(Nc1nc(-c2ccccn2)cs1)Nc1ccc(F)cc1F,,active: 3.55 µM
COc1ccc(OCCNC(=S)Nc2cccc3ccccc23)cc1,,active: 2.82 µM
CN1/C(=C\C=Nc2cc(S(=O)(=O)N3CCOCC3)ccc2N2CCOCC2)C(C)(C)c2ccccc21,,"inconclusive: 7.94 µM [activator, partial curve]"
CC(=O)Nc1cccc(NC(=O)c2cc(-c3cccnc3)nc3ccc(Br)cc23)c1,,"inconclusive: 22.4 µM [inhibitor, single point]"
CCOC(=O)c1c(NC(=O)CSC2=NN3CCCC(=O)N=C3S2)sc2c1CCCCC2,,"inconclusive: 10 µM [activator, partial curve]"
c1ccc(-n2nnnc2Oc2cccc3cccnc23)cc1,,active: 7.08 µM
CC(C)(C)Nc1c(-c2ccc(O)cc2)nc2ccc(Cl)cn12,,"inconclusive: 35.5 µM [inhibitor, single point]"
COC(=O)C(C)Sc1ncnc2c1nnn2-c1ccc(F)cc1 (centres undefined),,"inconclusive: 11.2 µM [inhibitor, single point]"
O=C(Nc1ccccn1)c1ccc2ccccc2n1,,active: 10 µM
Cc1cc(C)cc(NC(=O)c2nnn(Cc3cc(C)ccc3C)c2N)c1,,"inconclusive: 2.82 µM [activator, single point]"
C[n+]1ccn(CC(=O)c2cccs2)c1,,active: 10 µM
N#CCSc1nc2c(cc1C#N)CCCC2,inactive: 7.96%,
CC1CCN(S(=O)(=O)c2ccc(NC(=O)C3CC(=O)N(c4ccccc4)C3)cc2)CC1 (centres undefined),,"inconclusive: 35.5 µM [activator, single point]"
CC1(O)CC(c2ccc(Cl)cc2)=NN1C(=O)c1ccc(Cl)cc1 (centres undefined),,"inconclusive: 0.158 µM [activator, single point]"

SMILES,"activity change, negative = inhibition",Potency
CCc1ccc(C2NC(C(=O)O)CS2)cc1 (centres undefined),,"inconclusive: 3.98 µM [inhibitor, partial curve]"
CCOC(=O)N1CCN(C(=S)NC(=O)c2c(-c3c(Cl)cccc3Cl)noc2C)CC1,,active: 0.251 µM
CCCCC/C=C\C/C=C\CCCCCCCCCC(=O)NC(C)C(=O)O (centres undefined),inactive: 2.59%,
O=C(NCc1ccco1)/C(=C/c1ccco1)NC(=O)c1ccccc1,inactive: 0.839%,
Cc1nnc(NC(=O)C23CC4CC(CC(C4)C2)C3)s1,,"inconclusive: 12.6 µM [inhibitor, single point]"
Cc1ccccc1/C=C1\SC(=S)N(/N=C/c2cc([N+](=O)[O-])ccc2O)C1=O,,"inconclusive: 20 µM [inhibitor, single point]"
O=C(c1nc2ccccn2c1CNCCCn1ncc2ccccc21)N1CCCC1,inactive: 29%,
CC(C)CN(C(=O)COC(=O)c1ccccc1SCC(=O)NC1CCCCCC1)C1CCS(=O)(=O)C1 (centres undefined),,"inconclusive: 35.5 µM [activator, single point]"
Cc1ccc(S(=O)(=O)N2CCOC2CNC(=O)C(=O)NCCc2c[nH]c3ccccc23)cc1 (centres undefined),inactive: 39.7%,
N#C/C(=C\c1c[nH]c2ccccc12)c1nnc2n1CCCCC2,,"inconclusive: 12.6 µM [activator, single point]"
Cc1cc2cc3c(cc2nc1SCC(=O)Nc1nc(C)c(C)s1)OCO3,,"inconclusive: 22.4 µM [inhibitor, single point]"
COc1cc(NC(=O)c2csc(-c3ccncc3)n2)cc(C(=O)Nc2cccc(C(F)(F)F)c2)c1,inactive: 27.4%,
CC(=Nc1ccc(Br)cc1)c1sc2ccccc2c1O,,"inconclusive: 11.2 µM [inhibitor, single point]"
Cc1ccc(S(=O)(=O)Nc2ccc(-c3cn4ccc(C)cc4n3)cc2)cc1,,"inconclusive: 3.98 µM [activator, partial curve, poor fit]"
C/C(Cc1ccccc1)=N\NC(=O)c1ccccn1,inactive: 0.543%,
CCCc1nnc(NC(=O)CCN2C(=O)c3ccccc3C2=O)s1,,"inconclusive: 0.355 µM [inhibitor, single point]"
Cc1ccc(NC(=S)NNC(=O)c2c(Cl)c(C)nn2C)cc1,,active: 3.98 µM
O=C(c1ccco1)N1CCN(Cc2ccc(Cl)cc2)CC1,,"inconclusive: 7.94 µM [activator, partial curve]"
C/C(=N\NC(=O)c1cc(-c2ccc(O)cc2)nc2ccccc12)c1cccnc1,inactive: -37.7%,
O=C(NC(=S)NNC(=O)c1ccco1)c1ccc(F)cc1,,active: 11.2 µM
O=[N+]([O-])c1cc(C(F)(F)F)cc([N+](=O)[O-])c1NCCCN1CCOCC1,inactive: -11.5%,
CC(C)Cc1nc2ccccc2n1CCc1ccccc1,,active: 8.91 µM
CCn1nnnc1-c1ccc(OC)c(S(=O)(=O)Nc2ccc(C)c(C)c2)c1,inactive: 0%,
Cc1ccc(OCc2nc3ccccc3[nH]2)cc1,,"inconclusive: 17.8 µM [inhibitor, single point]"
CCC(C)(C)NC(=O)C(c1ccc(C)o1)N(C(=O)c1csnn1)c1cccc(F)c1 (centres undefined),,"inconclusive: 31.6 µM [activator, single point]"

SMILES,"activity change, negative = inhibition",Potency
CCCCNC(=O)NCc1cnn(C)c1C,inactive: -8.19%,
O=C(CCC(=O)Nc1ccc(Cl)cc1Cl)N/N=C/c1ccc([N+](=O)[O-])o1,,"inconclusive: 28.2 µM [inhibitor, single point]"
Cc1ccc(CCNC(=O)C2=CCN(S(=O)(=O)c3ccccc3)CC2)cc1,inactive: 3.2%,
COc1ccc(C)cc1S(=O)(=O)Nc1cc(Cl)ccc1Cl,,"inconclusive: 4.47 µM [inhibitor, single point]"
O=C(Nc1nccs1)c1ccc2ccccc2c1,,active: 7.94 µM
O=S(=O)(/N=C(/Nc1ccc(Cl)c(S(=O)(=O)Nc2ccccc2Cl)c1)c1ccc(F)cc1)c1ccccc1,,"inconclusive: 22.4 µM [activator, single point]"
COc1ccccc1-c1nnc(Nc2nc3c(OC)cccc3s2)o1,,active: 1.58 µM
CCn1c(=N)c(C(=O)NCc2cccnc2)cc2c(=O)n3cccc(C)c3nc21,inactive: -16.5%,
O=C(Nc1ccccc1)c1ccccc1OCC(O)CN1C(=O)c2ccccc2S1(=O)=O (centres undefined),,"inconclusive: 12.6 µM [activator, partial curve]"
CCOc1ccccc1Nc1nc(N)nc(CSc2nncn2C)n1,inactive: 10.6%,
Cn1cc(CCC(=O)NCc2cccc(Cl)c2)c2ccccc21,,"inconclusive: 35.5 µM [activator, single point]"
CN(c1ccccc1)S(=O)(=O)c1ccc(NC(=S)NC(=O)c2ccccc2)cc1,,active: 17.8 µM
CCC(CO)[n+]1c(C)cc(/C=C2\Sc3ccccc3N2Cc2ccccc2)cc1C (centres undefined),,"inconclusive: 1.26 µM [activator, partial curve]"
Cc1c(C(=O)N(Cc2ccccc2)C(C)C)oc2ccc(S(=O)(=O)N3CCOCC3)cc12,inactive: 23.3%,
O=C1CCN(Cc2ccccc2)CCN1CCOc1ccccc1,,"inconclusive: 28.2 µM [activator, single point]"
CN(CCC#N)C(=O)COC(=O)c1cc(Cl)cc(Cl)c1N,inactive: 3.69%,
Cc1nn(C(=O)C2CC2)c(C)c1Sc1ccc(Cl)cc1,,"inconclusive: 35.5 µM [activator, single point]"
Cc1ccnc(NC(=O)c2ccc(Cl)c(NC(=O)C(C)Oc3ccccc3)c2)c1 (centres undefined),,"inconclusive: 22.4 µM [inhibitor, single point]"
CCN(CC)c1ccc2c(Cl)c(Br)c(=O)oc2c1,,"inconclusive: 35.5 µM [inhibitor, single point]"
Cc1cc(N2CCCCC2)n2ncc(-c3ccccc3)c2n1,,"inconclusive: 17.8 µM [inhibitor, partial curve, poor fit]"
N#Cc1ccccc1NCc1ccccc1,,"inconclusive: 5.62 µM [inhibitor, single point]"
Cc1ccccc1N1CCN(CC(=O)Nc2nccs2)CC1,,"inconclusive: 14.1 µM [inhibitor, single point]"
Cc1cc(C(=O)COC(=O)c2cccn2C)c(C)n1Cc1ccco1,,"inconclusive: 4.47 µM [inhibitor, single point]"
O=C(Nc1ccc2c(c1)CCC2)C1CCN(c2c3c(nc4ncnn24)CCC3)CC1,,"inconclusive: 11.2 µM [activator, partial curve]"

# One compound at a time, from the list above.
# O=C(Nc1ccccc1)c1ccccc1OCC(O)CN1C(=O)c2ccccc2S1(=O)=O (centres undefined) reads Potency: inconclusive: 12.6 µM [activator, partial curve]
# Cn1cc(CCC(=O)NCc2cccc(Cl)c2)c2ccccc21 reads Potency: inconclusive: 35.5 µM [activator, single point]
# Cc1c(C(=O)N(Cc2ccccc2)C(C)C)oc2ccc(S(=O)(=O)N3CCOCC3)cc12 reads activity change, negative = inhibition: inactive: 23.3%
